Assay results as given in article PMC3431333.
No constants are given. Whether binding was seen depends on the method and setting. In cells and extracts the contact can be indirect. Binding calls can cover weak binding; strength is not graded here.

The chains behind the UniProt entries cited, without tags or fusion partners. Where a name states a change or a piece, a line headed by the entry shows the natural chain unless it says otherwise.
UniProt Q13492: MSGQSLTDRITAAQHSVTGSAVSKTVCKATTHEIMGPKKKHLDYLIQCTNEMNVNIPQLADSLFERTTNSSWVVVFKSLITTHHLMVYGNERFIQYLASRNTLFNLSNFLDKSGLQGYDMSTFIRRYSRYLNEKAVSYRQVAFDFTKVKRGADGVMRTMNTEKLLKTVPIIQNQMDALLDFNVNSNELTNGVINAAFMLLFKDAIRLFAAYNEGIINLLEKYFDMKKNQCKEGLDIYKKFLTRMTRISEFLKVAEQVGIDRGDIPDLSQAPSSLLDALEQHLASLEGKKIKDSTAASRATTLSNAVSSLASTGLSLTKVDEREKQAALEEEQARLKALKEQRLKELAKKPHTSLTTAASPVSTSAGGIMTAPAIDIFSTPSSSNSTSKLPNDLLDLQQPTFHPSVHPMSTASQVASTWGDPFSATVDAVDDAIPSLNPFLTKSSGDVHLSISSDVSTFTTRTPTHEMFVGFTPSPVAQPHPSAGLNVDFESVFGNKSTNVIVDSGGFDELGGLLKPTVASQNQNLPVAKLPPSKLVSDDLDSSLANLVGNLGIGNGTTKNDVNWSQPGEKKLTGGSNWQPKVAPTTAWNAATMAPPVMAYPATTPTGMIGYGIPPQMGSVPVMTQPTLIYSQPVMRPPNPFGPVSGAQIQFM
UniProt Q00610: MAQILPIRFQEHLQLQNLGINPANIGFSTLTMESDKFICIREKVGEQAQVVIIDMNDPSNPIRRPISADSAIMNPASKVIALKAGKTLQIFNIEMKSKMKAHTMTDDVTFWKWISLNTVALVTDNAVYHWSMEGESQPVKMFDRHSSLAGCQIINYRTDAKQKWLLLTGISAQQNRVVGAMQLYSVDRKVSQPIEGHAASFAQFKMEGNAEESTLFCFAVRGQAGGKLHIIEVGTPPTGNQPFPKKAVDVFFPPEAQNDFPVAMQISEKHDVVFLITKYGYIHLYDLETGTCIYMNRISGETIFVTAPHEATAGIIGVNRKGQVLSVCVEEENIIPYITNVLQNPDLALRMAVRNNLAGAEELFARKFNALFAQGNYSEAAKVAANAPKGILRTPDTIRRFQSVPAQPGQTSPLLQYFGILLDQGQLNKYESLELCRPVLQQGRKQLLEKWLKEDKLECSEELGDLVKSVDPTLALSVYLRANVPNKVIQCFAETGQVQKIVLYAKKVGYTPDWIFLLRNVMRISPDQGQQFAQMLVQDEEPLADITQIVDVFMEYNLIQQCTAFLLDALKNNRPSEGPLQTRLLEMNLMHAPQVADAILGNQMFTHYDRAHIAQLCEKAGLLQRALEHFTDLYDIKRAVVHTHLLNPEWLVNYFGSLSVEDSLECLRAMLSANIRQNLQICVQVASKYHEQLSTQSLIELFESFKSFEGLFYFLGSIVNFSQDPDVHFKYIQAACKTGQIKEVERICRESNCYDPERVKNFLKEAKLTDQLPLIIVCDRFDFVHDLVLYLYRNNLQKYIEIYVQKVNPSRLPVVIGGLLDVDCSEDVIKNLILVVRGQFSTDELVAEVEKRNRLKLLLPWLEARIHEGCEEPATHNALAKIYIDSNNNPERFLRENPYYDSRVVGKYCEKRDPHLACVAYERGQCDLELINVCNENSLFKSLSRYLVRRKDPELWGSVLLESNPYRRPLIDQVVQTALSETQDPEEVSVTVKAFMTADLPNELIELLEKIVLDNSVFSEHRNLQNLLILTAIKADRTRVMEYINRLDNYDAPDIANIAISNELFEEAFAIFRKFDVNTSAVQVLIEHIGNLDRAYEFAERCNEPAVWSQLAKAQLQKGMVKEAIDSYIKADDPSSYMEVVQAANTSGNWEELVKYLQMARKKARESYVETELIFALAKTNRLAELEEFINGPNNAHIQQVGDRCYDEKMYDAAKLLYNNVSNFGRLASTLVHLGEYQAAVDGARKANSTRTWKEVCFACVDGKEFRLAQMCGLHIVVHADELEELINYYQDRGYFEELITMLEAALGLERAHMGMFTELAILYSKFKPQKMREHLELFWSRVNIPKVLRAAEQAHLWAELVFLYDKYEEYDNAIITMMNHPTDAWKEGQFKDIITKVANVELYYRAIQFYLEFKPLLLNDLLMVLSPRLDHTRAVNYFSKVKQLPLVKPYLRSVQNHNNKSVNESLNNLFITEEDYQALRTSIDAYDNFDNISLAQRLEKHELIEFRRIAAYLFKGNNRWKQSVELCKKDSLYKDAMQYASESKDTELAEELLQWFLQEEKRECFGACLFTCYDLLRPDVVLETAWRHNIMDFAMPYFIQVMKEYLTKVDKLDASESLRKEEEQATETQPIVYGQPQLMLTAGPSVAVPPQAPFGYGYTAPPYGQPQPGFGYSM

Legend:
[1] = biological target: GFP-PICALM NAAIRS mutant PTTAWN (aa 584–589 mutated to NAAIRS) (human) (UniProt Q13492); test: co-IP; lysates of transfected HEK293T cells (HEK293 in the legends) 48 h after transfection; anti-GFP antibody overnight at 4°C, Protein-G-Sepharose 2 hr at 4°C, three washes with lysis buffer; immunoblot with anti-clathrin heavy chain antibody
[2] = biological target: GFP-PICALM:256–652 (amino-terminally truncated PICALM) (human) (UniProt Q13492); test: as above

binding [1]: binds | binding [2]: binds
Substance: clathrin heavy chain (from UniProt Q00610 1-1675)
